Measured values as given in PMC8517208.

Sequences of proteins named here, by UniProt entry; tags and fusion partners are left off. A change or cut given only in a name is not applied to a line headed by its entry. A line that says so, or that is headed by a name, gives the form on record, which may keep a tag or linker. Residues count along the entry.
UniProt P09055, residues 21-798: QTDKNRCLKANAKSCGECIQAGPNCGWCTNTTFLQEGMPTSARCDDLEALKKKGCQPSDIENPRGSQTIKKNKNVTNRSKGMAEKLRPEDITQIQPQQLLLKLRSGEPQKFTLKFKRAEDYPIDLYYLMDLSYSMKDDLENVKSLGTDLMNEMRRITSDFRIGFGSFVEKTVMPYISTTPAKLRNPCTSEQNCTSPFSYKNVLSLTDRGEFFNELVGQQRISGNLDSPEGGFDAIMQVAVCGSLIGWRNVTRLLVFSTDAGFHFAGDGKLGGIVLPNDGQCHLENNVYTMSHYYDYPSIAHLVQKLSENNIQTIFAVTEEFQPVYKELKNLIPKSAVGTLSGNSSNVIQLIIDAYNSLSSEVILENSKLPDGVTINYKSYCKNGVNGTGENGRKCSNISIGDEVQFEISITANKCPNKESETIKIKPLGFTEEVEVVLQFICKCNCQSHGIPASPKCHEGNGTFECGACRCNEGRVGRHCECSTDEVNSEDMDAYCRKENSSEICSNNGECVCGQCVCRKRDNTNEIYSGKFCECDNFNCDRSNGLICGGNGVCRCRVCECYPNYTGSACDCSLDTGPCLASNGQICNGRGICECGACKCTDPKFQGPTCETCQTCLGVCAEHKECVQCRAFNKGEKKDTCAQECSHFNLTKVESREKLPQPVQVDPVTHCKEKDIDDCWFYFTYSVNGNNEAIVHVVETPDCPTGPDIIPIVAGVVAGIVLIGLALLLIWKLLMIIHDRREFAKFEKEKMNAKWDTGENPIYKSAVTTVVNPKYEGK
UniProt Q9Z1R2: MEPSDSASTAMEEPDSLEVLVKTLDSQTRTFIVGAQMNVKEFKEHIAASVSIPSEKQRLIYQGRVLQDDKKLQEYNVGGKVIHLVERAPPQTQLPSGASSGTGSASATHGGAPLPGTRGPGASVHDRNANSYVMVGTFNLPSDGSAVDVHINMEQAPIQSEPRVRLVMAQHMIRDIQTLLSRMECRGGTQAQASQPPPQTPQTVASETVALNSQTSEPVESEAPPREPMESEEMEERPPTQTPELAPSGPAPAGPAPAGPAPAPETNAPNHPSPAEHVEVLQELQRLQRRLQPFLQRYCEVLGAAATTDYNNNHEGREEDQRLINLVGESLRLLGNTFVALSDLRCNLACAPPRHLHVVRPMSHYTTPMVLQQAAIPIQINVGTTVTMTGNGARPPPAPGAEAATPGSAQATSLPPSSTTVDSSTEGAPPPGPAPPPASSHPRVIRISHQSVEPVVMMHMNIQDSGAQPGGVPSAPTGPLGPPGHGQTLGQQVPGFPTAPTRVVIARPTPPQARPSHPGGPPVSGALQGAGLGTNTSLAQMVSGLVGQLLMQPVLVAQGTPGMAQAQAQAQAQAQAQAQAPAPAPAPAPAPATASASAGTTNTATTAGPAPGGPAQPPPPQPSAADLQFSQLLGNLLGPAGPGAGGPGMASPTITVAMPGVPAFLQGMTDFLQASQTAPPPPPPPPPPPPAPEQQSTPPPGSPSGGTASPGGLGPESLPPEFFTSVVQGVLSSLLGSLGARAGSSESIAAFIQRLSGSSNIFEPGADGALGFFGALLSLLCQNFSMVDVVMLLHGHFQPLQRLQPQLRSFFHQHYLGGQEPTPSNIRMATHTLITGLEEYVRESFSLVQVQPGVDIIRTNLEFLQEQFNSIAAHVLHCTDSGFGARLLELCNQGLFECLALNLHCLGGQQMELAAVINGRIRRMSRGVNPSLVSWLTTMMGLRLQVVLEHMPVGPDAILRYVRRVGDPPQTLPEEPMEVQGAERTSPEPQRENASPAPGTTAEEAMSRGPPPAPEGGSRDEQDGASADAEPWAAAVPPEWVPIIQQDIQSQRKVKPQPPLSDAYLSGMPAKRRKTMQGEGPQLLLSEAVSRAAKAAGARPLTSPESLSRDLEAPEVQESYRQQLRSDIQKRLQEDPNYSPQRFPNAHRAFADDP
UniProt Q9QYJ0: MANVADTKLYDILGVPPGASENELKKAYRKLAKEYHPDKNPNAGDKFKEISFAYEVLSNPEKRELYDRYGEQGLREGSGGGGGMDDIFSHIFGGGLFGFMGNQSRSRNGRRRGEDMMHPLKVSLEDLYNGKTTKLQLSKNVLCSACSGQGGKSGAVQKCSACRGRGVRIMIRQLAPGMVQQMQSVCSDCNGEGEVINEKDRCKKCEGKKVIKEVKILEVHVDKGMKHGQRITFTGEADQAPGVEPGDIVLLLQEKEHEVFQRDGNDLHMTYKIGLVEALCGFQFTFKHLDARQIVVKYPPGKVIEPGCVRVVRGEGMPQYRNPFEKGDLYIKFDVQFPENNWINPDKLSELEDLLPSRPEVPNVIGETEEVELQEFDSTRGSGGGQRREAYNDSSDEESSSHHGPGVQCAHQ
UniProt P51150: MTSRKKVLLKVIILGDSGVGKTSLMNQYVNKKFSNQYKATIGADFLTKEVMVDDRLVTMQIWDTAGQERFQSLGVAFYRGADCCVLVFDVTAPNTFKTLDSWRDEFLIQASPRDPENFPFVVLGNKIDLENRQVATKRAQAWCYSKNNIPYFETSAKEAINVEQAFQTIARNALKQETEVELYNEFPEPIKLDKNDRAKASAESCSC
Solute carrier family 3 member 2 (P10852-2, form named): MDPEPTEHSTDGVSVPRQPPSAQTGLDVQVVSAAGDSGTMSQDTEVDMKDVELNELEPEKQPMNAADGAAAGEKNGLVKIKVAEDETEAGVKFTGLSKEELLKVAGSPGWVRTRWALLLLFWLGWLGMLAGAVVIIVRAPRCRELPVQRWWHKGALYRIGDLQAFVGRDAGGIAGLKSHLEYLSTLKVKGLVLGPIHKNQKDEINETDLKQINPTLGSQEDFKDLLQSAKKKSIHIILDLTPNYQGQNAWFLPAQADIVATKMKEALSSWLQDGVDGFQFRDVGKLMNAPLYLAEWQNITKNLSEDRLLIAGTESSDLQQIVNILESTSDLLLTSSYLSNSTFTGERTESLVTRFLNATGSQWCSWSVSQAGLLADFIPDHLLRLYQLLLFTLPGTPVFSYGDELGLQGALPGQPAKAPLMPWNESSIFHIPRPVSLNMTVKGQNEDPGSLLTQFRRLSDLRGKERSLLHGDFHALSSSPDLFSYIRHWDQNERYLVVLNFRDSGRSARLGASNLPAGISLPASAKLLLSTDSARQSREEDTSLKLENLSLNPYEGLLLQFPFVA
UniProt Q6PR54: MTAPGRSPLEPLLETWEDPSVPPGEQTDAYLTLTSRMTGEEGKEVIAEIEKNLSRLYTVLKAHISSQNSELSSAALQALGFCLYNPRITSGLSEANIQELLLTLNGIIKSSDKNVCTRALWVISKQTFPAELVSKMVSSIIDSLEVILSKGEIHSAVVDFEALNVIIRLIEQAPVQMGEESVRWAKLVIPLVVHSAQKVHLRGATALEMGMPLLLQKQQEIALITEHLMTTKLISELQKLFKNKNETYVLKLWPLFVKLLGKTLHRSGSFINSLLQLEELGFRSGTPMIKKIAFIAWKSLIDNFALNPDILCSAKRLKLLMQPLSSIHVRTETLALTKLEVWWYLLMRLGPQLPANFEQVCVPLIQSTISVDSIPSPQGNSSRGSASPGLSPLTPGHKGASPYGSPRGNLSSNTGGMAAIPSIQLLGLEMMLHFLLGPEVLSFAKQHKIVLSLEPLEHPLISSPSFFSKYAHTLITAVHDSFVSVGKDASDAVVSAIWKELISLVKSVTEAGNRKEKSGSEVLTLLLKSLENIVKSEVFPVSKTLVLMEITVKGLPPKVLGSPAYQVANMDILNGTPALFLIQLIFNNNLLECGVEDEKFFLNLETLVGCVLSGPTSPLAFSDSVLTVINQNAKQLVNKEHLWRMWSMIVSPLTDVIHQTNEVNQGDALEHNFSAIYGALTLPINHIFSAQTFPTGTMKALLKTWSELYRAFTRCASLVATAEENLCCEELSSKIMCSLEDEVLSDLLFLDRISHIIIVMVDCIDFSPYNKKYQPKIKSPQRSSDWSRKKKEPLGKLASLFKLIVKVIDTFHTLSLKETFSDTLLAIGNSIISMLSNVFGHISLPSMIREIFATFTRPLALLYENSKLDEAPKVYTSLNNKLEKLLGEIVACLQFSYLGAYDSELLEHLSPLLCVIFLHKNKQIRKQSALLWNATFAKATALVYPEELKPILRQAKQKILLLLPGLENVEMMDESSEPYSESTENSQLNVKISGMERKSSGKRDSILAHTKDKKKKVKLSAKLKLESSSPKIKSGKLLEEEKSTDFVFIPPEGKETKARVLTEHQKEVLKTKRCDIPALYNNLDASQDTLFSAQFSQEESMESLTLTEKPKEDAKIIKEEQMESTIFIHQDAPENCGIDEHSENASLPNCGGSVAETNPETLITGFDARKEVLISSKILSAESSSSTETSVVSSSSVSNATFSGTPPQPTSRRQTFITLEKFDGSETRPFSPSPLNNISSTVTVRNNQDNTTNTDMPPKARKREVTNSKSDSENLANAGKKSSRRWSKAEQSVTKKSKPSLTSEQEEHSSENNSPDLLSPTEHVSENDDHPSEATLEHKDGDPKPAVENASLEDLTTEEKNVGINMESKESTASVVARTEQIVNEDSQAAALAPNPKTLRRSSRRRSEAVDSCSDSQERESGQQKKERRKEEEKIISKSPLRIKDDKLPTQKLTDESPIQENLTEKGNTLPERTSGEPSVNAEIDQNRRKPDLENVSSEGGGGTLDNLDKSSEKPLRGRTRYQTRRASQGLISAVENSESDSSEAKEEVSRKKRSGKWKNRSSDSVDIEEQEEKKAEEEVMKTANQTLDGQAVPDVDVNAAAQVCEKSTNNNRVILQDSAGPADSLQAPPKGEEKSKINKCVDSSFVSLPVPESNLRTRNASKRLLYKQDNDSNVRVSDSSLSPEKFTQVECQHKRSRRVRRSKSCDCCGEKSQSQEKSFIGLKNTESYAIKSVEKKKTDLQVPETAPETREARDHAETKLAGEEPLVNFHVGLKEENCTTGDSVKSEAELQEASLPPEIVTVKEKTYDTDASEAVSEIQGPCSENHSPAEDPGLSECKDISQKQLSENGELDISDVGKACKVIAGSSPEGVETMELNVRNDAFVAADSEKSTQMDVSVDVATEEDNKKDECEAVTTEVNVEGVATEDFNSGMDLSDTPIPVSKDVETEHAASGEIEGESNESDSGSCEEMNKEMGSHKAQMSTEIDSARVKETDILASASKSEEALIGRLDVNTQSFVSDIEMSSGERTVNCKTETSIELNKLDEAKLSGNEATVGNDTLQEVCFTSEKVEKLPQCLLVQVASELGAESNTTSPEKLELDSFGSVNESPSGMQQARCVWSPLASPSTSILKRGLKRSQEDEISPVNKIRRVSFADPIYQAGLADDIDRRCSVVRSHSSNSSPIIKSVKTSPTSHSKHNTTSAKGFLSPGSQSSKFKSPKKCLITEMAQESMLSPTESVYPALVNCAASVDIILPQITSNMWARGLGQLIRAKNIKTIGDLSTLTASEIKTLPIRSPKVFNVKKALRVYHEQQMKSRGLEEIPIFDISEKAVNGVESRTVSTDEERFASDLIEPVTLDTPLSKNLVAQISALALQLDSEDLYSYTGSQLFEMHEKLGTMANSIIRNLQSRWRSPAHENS
UniProt P55258: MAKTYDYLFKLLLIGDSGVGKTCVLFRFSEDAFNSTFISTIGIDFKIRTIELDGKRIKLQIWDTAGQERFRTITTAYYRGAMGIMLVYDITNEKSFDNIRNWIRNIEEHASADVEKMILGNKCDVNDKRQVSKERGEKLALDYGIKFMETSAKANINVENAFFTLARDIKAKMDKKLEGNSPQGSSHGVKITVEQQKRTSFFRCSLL
UniProt P63024: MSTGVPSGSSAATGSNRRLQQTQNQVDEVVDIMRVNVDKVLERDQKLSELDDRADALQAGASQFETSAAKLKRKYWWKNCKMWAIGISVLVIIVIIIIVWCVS
UniProt Q99JI6: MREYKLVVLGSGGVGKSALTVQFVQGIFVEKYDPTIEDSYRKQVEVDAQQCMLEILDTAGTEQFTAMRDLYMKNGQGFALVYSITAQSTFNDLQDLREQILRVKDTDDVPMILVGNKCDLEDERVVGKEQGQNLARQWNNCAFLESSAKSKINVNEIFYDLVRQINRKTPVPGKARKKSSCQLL
UniProt Q9QUI0: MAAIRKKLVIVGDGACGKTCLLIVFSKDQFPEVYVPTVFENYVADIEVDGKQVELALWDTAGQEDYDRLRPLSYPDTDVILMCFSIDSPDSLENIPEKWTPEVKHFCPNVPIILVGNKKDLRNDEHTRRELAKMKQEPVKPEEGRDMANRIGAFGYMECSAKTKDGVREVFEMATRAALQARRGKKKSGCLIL
UniProt Q9CQ22: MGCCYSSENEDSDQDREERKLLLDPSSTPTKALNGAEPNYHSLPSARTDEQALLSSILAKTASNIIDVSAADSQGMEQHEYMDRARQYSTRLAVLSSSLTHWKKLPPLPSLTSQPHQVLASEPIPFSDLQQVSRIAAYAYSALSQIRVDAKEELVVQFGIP
UniProt Q9D1G1: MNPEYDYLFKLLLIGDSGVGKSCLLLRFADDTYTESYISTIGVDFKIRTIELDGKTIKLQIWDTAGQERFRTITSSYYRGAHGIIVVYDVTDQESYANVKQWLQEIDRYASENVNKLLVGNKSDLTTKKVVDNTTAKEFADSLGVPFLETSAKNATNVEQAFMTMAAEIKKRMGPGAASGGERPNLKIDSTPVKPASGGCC

T1: murine EpCAM in fusion with yellow fluorescent protein (YFP) at the C-terminus, in mF9 cells (murine) (UniProt Q99JW5)
T1 sequence: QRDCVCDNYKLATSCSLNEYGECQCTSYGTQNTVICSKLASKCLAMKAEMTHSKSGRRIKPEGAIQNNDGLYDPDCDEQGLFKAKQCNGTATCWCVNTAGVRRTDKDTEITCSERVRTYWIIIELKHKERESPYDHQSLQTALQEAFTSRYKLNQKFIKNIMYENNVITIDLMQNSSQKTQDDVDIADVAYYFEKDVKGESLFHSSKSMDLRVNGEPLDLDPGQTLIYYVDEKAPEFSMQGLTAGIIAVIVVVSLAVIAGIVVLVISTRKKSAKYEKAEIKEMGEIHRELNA


Molecular target: T1, murine EpCAM in fusion with yellow fluorescent protein (YFP) at the C-terminus, in mF9 cells (murine)
Experiment: affinity purification with mass spectrometry; SILAC: whole cell lysates of mF9 cells stably expressing EpCAM-YFP (heavy, Lys-8/Arg-10) or YFP (light); 3 or 7 mg lysate with 30 μL GFP-Trap agarose beads, 3 hrs, 4°C; washed in 0.2% tween in PBS; LC-MS/MS; three biological repeats; hits: enriched >3-fold over YFP, p ≤ 0.05, at least 2 unique peptides

| Molecule | binding |
| --- | --- |
| DnaJ heat shock protein family (Hsp40) member C13 (from UniProt D4AFX7 1-2248) | binds |
| Integrin beta-1 (from UniProt P09055-1 21-798) | binds |
| Guanine nucleotide-binding protein G 8K) subunit alpha (from UniProt Q9DC51 1-354) | binds |
| Ras-related protein Rab-6A (from UniProt P35279-1 1-208) | binds |
| CCR4-NOT transcription complex subunit 1 (from UniProt Q6ZQ08-4 1-2376) | binds |
| Prohibitin-2 (from UniProt O35129 1-299) | binds |
| Bcl2-associated anthanogene 6 (from UniProt Q9Z1R2 1-1154) | binds |
| Manganese-transporting ATPase 13A1 (from UniProt Q9EPE9 1-1200) | binds |
| DnaJ homolog subfamily A member 2 (from UniProt Q9QYJ0 1-412) | binds |
| Cytochrome b5 (from UniProt P56395 1-134) | binds |
| Ras-related protein Rab-7 (from UniProt P51150 1-207) | binds |
| Low-density lipoprotein receptor-related 2 (mouse (endogenous in mF9)) | binds |
| Sec1 family domain-containing protein 1 (from UniProt Q8BRF7-1 1-639) | binds |

Continued, values first:

| binding | Molecule |
| --- | --- |
| binds | Solute carrier family 3 member 2 (from UniProt P10852-2 1-565) |
| binds | DnaJ homolog subfamily A member 1 (from UniProt P63037 1-397) |
| binds | Telomere-associated protein Rif1 (from UniProt Q6PR54 1-2419) |
| binds | Ras-related protein Rab8a (from UniProt P55258 1-207) |
| binds | Integrin alpha-6 (mouse (endogenous in mF9)) |
| binds | Scan domain-containing protein 3 (from UniProt B2RPU8) |
| binds | Mon2 (from UniProt Q80TL7-1 1-1715) |
| binds | TATA-binding protein-associated factor 172 (from UniProt E9QAE3 1-1848) |
| binds | Voltage-dependent anion-selective channel 1 (from UniProt Q60932-1 1-296) |
| binds | Cancerous inhibitor of PP2A (from UniProt Q8BWY9 1-907) |
| binds | Vesicle-associated membrane protein 3 (from UniProt P63024 1-103) |
| binds | Ras-related protein Rab18 (from UniProt P35293 1-206) |
| binds | Ras-related protein 1b (from UniProt Q99JI6 1-184) |
| binds | Transforming protein RhoA (from UniProt Q9QUI0 1-193) |
| binds | Ragulator complex protein LAMTOR1 (from UniProt Q9CQ22 1-161) |
| binds | eIF-2-alpha kinase activator (from UniProt E9PVA8 1-2671) |
| binds | Cytoskeleton-associated protein 5 (from UniProt A2AGT5 1-2032) |
| binds | Ras-related protein Rab-1B (from UniProt Q9D1G1 1-201) |
| binds | Vesicle-associated membrane protein 8 (protein, UniProt O70404 1-101) MEEASGSAGNDRVRNLQSEVEGVKNIMTQNVERILSRGENLDHLRNKTEDLEATSEHFKTTSQKVARKFWWKNVKMIVIICVIVLIIVILIILFATGTIPT |

No constants are given. Whether binding was seen depends on the method and setting. Binding seen in cells or lysates may run through a third protein. These calls come from enrichment with a bait or labelling near it, and not all partners need be listed. Where a sequence is shown, tags or fusion partners need not be part of it.
